This note sets out measurements from the supplement of paper PMC12542422.

Structures can show the parent of a compound that is named as a salt. ± gives the standard deviation of the averaged measurements. This is one part of the list. These are raw signals, not scaled to a control.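 Ribosome-assembly readouts in HeLa cells were imaged via ENP1 staining, with or without export block, or inducible tagged ribosomal protein reporters. Machine learning classified per-cell signal location versus solvent (DMSO) controls. Hits surpassed the DMSO false-positive mean by five standard deviations and were visually confirmed; three biological replicates.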

Assay [1] deals with HeLa K (ENP1 immunofluorescence, +LMB). The experiment in a line: fraction of cells with nucleolar or nucleolar/nucleoplasmic ENP1 signal (MainHitrate); higher = more cells with nucleolar/nuclear readout signal (for ENP1 -LMB: less RNAPI inhibition; for +LMB ENP1 and RP reporters: stronger nuclear/nucleolar retention, i.e. ribosome biogenesis defect). Conditions: concentration: 1 µM; treatment time: 6 h; ENP1 +LMB; leptomycin B: 20 nM, last 1.5 h.

The test system of assay [2] is HeLa K (ENP1 immunofluorescence, no LMB). The assay is described as above. Conditions: concentration: 1 µM; treatment time: 6 h; ENP1 -LMB; leptomycin B: none.
Another assay deals with HeLa RPS2-YFP reporter. The experiment in a line: fraction of reporter-positive cells with nuclear (nucleolar or nucleolar/nucleoplasmic) RPS2-YFP (MainHitrate); higher = more cells with nucleolar/nuclear readout signal (for ENP1 -LMB: less RNAPI inhibition; for +LMB ENP1 and RP reporters: stronger nuclear/nucleolar retention, i.e. ribosome biogenesis defect). Conditions: concentration: 1 µM; treatment time: 6 h.

For the next assay, the system named is HeLa RPL29-GFP reporter. Put plainly: fraction of reporter-positive cells with nuclear (nucleolar or nucleolar/nucleoplasmic) RPL29-GFP (MainHitrate); higher = more cells with nucleolar/nuclear readout signal (for ENP1 -LMB: less RNAPI inhibition; for +LMB ENP1 and RP reporters: stronger nuclear/nucleolar retention, i.e. ribosome biogenesis defect). Conditions: concentration: 1 µM; treatment time: 6 h.

With `CN(C)C(=O)Oc1ccc[n+](C)c1` [Pyridostigmine Bromide (Mestinon)], the fraction turned out to be 0.0771 ± 0.071 in assay [1] and 0.9984 ± 0.0027 in assay [2]. Moreover, the “fraction of reporter-positive cells with nuclear” value (“fraction … with nuclear” below) came out at 0.0904 ± 0.051 in the assay with HeLa RPS2-YFP reporter and 0.199 ± 0.074 in the assay on HeLa RPL29-GFP reporter.
In the case of `COc1cc2c(cc1OC)[C@@]13CCN4CC5=CCO[C@H]6CC(=O)N2[C@H]1[C@H]6[C@H]5C[C@H]43` [Brucine], the fraction in assay [1] amounted to 0.141 ± 0.16; in assay [2], 0.9964 ± 0.0062. For the same molecule, the “fraction … with nuclear” value in the assay with HeLa RPS2-YFP reporter was 0.197 ± 0.16; in the assay on HeLa RPL29-GFP reporter, 0.29 ± 0.25.
Take `Cc1cccc([C@H](C)c2c[nH]cn2)c1C` [Dexmedetomidine HCl (Precedex)]: the fraction turned out to be 0.0684 ± 0.083 in assay [1] and 0.997 ± 0.0051 in assay [2]. Also, the results for the “fraction … with nuclear” value in the assay on HeLa RPS2-YFP reporter and in the assay on HeLa RPL29-GFP reporter were 0.155 ± 0.098 and 0.247 ± 0.04, respectively.
Take `C[N+](C)(C)CCCCCCCCCC[N+](C)(C)C` [Decamethonium bromide]: the fraction in assay [1] turned out to be 0.0625 ± 0.076; in assay [2], 0.985 ± 0.026. Further, the “fraction … with nuclear” value amounted to 0.119 ± 0.12 in the assay with HeLa RPS2-YFP reporter and 0.205 ± 0.072 with HeLa RPL29-GFP reporter.
On the same counts, the results for `CC(C)N(CCNC(=O)CN1CCCC1=O)C(C)C` [Pramiracetam] are 0.09 ± 0.12, 0.984 ± 0.028, 0.093 ± 0.094 and 0.198 ± 0.073.
Consider `O=C1CC[C@@]2(O)[C@H]3Cc4ccc(O)c5c4[C@@]2(CCN3CC2CC2)[C@H]1O5` [Naltrexone HCl], for which the figures for the fraction in assay [1] and in assay [2] were 0.124 ± 0.18 and 0.991 ± 0.015, respectively. The “fraction … with nuclear” value in the assay on HeLa RPS2-YFP reporter turned out to be 0.108 ± 0.099; with HeLa RPL29-GFP reporter it was 0.229 ± 0.073.
For the molecule `OC(c1ccccc1)(c1ccccc1)C1CCNCC1` [Azacyclonol], the fraction in assay [1] was determined as 0.0608 ± 0.074; in assay [2], 0.983 ± 0.03. Further, the “fraction … with nuclear” value in the assay on HeLa RPS2-YFP reporter is 0.121 ± 0.096; in the assay with HeLa RPL29-GFP reporter, 0.245 ± 0.089.
In the same order, the values of `CC(=O)Nc1cc([As](=O)(O)O)ccc1O` [Acetarsone] are 0.105 ± 0.11, 0.9964 ± 0.0062, 0.181 ± 0.16 and 0.294 ± 0.26.
In the same order, the values of `C=CC[C@]1(O)CC[C@H]2[C@@H]3CCC4=CC(=O)CCC4=C3C=C[C@@]21C` [Altrenogest] are 0.0804 ± 0.1, 0.99 ± 0.018, 0.115 ± 0.099 and 0.206 ± 0.096.
With `C/C=C(\C)C(=O)N[C@@H](c1ccccc1)[C@@H](O)C(=O)O[C@H]1C[C@@]2(O)[C@@H](OC(=O)c3ccccc3)[C@@H]3[C@]4(OC(C)=O)CO[C@@H]4C[C@H](O)[C@@]3(C)C(=O)[C@H](OC(C)=O)C(=C1C)C2(C)C` [Cephalomannine], the figures for the fraction in assay [1] and in assay [2] were 0.14 ± 0.21 and 0.969 ± 0.053, respectively. Besides, the “fraction … with nuclear” value amounted to 0.183 ± 0.11 in the assay with HeLa RPS2-YFP reporter and 0.287 ± 0.063 with HeLa RPL29-GFP reporter.
As for `[O-][n+]1ccccc1[S-].[O-][n+]1ccccc1[S-].[Zn+2]` [Pyrithione zinc], the fraction was 0.132 ± 0.17 in assay [1] and 0.992 ± 0.015 in assay [2]. For the same molecule, the “fraction … with nuclear” value was found to be 0.309 ± 0.31 in the assay with HeLa RPS2-YFP reporter and 0.467 ± 0.28 with HeLa RPL29-GFP reporter.
Regarding `N.N.[Cl][Pt][Cl]` [Cisplatin], the fraction was determined as 0.0832 ± 0.071 in assay [1] and 0.9975 ± 0.0043 in assay [2]. The “fraction … with nuclear” value in the assay with HeLa RPS2-YFP reporter was 0.122 ± 0.04; with HeLa RPL29-GFP reporter it was 0.207 ± 0.05.
With `O=P1(NCCCl)OCCCN1CCCl` (configuration not stated) [Ifosfamide], the figures for the fraction in assay [1] and in assay [2] were 0.0802 ± 0.055 and 0.9974 ± 0.0045, respectively. The “fraction … with nuclear” value in the assay with HeLa RPS2-YFP reporter was 0.0661 ± 0.024; with HeLa RPL29-GFP reporter, 0.225 ± 0.059.
Consider `COc1ccc(OC)c(C(O)C(C)N)c1` (configuration not stated) [Methoxamine HCl], for which the fraction in assay [1] worked out at 0.141 ± 0.15; in assay [2], 0.9964 ± 0.0063. The figures for the “fraction … with nuclear” value in the assay with HeLa RPS2-YFP reporter and in the assay on HeLa RPL29-GFP reporter were 0.167 ± 0.16 and 0.299 ± 0.21, respectively.
In the same order, the values of `C=C1C[C@@H]2[C@H](CC[C@]3(C)C(=O)CC[C@@H]23)[C@@]2(C)C=CC(=O)C=C12` [Exemestane] are 0.0937 ± 0.095, 0.9972 ± 0.0049, 0.116 ± 0.072 and 0.204 ± 0.065.
In the same order, the values of `C[C@]12CC[C@H](O)CC1=CC[C@@H]1[C@@H]2CC[C@]2(C)C(=O)CC[C@@H]12` [Dehydroepiandrosterone (DHEA)] are 0.0467 ± 0.052, 0.985 ± 0.026, 0.107 ± 0.087 and 0.226 ± 0.07.
In the same order, the values of `CCN(C)C(=O)Oc1cccc([C@H](C)N(C)C)c1` [Rivastigmine tartrate (Exelon)] are 0.0642 ± 0.066, 0.9964 ± 0.0062, 0.0965 ± 0.073 and 0.237 ± 0.042.
`CC(=O)O[C@H]1C[C@@H]2CC[C@@H]3[C@H](CC[C@@]4(C)[C@H]3C[C@H]([N+]3(C)CCCCC3)[C@@H]4OC(C)=O)[C@@]2(C)C[C@@H]1[N+]1(C)CCCCC1` [Pancuronium (Pavulon)]: the fraction in assay [1] was 0.103 ± 0.14; in assay [2], 0.9949 ± 0.0088. Moreover, the figures for the “fraction … with nuclear” value in the assay on HeLa RPS2-YFP reporter and in the assay on HeLa RPL29-GFP reporter were 0.0981 ± 0.056 and 0.22 ± 0.054, respectively.
